Experimental data: the supplement of paper PMC10849652
The list shows a part of the results.

By UniProt entry, the sequences of proteins in these tests, tags left out. Where a name states a change or a piece, a line headed by the entry shows the natural chain unless it says otherwise.
UniProt O95214: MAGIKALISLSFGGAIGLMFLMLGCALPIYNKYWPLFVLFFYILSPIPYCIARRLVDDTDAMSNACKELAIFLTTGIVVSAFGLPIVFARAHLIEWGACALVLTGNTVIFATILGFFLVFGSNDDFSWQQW
UniProt Q15048: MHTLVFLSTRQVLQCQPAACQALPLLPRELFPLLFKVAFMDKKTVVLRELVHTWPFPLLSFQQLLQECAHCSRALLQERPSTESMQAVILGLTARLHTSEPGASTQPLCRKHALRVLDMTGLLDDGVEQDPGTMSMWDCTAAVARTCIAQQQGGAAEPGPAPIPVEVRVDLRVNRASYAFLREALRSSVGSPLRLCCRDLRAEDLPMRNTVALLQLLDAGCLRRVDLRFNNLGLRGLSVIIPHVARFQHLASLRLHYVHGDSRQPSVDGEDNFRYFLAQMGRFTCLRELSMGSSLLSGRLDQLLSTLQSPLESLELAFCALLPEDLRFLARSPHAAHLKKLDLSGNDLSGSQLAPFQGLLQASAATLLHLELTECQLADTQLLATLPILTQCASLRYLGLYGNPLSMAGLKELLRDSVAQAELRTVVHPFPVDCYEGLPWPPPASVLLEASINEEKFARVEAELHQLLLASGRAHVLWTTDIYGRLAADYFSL
UniProt Q643R3: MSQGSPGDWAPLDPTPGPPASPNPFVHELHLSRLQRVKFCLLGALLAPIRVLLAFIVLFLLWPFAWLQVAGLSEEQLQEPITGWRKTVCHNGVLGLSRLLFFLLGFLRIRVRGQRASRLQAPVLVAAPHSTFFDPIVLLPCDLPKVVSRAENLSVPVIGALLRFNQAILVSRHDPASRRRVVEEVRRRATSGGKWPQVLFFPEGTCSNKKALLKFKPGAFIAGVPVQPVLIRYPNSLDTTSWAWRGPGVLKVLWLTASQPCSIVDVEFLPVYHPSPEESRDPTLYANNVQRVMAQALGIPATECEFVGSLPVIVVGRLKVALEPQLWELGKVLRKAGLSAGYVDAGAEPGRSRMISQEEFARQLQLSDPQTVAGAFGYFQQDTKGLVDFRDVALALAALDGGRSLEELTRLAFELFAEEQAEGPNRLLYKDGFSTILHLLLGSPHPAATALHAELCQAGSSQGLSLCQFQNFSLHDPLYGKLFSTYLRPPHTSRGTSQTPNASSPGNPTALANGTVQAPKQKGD
UniProt Q9GZZ8: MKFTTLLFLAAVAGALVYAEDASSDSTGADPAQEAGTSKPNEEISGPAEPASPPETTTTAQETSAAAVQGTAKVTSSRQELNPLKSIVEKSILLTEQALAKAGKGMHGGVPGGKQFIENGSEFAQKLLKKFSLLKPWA
UniProt Q52LA3: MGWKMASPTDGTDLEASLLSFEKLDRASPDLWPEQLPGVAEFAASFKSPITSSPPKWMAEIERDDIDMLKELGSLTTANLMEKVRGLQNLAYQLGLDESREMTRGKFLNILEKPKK
UniProt P55268: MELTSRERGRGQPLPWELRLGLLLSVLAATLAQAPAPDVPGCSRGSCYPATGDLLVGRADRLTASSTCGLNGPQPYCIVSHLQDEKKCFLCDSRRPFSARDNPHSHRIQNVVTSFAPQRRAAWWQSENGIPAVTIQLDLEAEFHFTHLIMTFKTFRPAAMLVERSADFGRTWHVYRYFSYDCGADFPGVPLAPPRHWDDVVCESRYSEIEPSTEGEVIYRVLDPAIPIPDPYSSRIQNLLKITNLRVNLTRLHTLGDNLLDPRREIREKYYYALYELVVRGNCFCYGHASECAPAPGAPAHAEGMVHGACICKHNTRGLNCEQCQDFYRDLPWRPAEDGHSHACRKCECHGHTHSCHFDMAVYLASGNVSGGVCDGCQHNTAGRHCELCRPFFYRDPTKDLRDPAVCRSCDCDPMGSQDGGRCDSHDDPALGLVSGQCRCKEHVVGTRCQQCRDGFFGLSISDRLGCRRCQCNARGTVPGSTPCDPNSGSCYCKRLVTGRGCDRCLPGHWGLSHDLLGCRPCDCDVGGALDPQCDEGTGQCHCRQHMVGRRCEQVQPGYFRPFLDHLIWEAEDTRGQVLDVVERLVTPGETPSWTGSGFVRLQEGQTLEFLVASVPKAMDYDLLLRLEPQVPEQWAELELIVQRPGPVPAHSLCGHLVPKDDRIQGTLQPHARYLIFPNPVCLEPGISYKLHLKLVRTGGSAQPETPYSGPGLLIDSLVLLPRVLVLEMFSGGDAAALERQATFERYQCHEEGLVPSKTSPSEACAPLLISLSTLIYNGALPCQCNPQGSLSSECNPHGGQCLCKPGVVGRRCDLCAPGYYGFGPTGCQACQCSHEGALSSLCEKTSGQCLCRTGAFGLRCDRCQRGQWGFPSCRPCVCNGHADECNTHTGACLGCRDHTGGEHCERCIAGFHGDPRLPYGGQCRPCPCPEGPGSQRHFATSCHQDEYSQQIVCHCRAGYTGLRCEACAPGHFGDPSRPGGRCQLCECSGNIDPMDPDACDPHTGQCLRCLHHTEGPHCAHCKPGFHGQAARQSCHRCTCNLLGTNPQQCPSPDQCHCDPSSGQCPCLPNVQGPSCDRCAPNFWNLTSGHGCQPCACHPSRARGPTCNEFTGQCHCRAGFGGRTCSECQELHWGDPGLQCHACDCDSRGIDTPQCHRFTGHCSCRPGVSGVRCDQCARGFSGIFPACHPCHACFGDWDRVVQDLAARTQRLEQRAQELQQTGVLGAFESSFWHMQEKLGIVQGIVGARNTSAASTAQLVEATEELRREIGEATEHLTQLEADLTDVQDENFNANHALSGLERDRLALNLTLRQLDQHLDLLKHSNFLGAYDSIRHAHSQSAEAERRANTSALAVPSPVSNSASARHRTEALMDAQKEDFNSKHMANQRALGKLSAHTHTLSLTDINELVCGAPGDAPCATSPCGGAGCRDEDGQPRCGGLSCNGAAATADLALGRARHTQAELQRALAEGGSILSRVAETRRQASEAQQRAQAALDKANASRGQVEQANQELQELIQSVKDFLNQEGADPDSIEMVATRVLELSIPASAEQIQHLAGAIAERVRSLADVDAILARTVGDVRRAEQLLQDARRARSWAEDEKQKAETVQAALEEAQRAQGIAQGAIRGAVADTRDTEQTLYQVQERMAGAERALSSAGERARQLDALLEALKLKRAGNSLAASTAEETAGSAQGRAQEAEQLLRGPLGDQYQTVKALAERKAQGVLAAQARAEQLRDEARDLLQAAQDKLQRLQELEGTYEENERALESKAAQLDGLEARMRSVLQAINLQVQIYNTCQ
UniProt Q53QV2: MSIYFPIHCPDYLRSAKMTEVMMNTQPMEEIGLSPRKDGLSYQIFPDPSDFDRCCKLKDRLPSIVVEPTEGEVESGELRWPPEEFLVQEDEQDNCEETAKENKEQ
UniProt Q86VI4: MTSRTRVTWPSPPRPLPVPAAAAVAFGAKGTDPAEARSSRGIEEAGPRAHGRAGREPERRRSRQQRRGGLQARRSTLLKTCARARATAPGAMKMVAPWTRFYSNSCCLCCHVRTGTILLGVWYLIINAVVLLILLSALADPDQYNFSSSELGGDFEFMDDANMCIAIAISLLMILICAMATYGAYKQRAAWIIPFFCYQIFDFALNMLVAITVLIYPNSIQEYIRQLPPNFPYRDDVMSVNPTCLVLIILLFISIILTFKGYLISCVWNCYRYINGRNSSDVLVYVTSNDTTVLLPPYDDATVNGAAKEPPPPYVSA
UniProt Q15345: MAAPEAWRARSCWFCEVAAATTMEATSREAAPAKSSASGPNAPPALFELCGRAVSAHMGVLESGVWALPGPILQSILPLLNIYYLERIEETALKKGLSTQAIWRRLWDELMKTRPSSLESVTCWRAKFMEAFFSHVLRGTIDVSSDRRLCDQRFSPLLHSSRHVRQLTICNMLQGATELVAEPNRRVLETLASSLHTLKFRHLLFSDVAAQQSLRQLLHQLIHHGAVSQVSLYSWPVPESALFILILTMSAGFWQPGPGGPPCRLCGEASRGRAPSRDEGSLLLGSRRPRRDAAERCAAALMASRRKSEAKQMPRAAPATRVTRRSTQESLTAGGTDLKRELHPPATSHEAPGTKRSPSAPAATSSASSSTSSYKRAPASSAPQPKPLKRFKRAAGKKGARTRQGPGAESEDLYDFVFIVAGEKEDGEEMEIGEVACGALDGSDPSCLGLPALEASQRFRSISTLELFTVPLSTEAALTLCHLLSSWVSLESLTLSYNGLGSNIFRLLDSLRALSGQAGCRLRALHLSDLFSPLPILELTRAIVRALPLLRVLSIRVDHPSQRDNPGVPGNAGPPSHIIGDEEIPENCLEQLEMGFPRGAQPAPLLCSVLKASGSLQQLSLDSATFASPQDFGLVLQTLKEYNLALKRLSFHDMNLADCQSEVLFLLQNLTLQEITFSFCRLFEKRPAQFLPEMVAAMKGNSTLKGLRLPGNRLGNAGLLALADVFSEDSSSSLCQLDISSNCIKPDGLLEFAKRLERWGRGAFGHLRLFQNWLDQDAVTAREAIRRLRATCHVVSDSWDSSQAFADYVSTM
UniProt Q13571: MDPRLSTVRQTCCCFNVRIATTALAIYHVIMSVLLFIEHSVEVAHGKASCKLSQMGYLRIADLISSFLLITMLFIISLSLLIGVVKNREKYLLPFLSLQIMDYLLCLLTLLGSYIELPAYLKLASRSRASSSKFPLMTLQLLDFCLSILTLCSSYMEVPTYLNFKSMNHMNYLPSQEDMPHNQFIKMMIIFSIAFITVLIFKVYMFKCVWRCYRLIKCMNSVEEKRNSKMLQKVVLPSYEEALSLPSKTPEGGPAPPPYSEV
UniProt P23490: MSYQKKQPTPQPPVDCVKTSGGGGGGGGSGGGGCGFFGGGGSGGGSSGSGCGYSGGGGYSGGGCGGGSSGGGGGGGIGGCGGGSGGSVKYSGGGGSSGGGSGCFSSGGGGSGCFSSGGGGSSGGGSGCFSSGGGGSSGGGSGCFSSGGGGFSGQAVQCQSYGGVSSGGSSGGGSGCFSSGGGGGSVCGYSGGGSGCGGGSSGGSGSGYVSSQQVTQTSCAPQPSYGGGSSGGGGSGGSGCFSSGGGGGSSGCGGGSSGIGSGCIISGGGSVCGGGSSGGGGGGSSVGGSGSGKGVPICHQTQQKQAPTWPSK
UniProt Q9BQD3: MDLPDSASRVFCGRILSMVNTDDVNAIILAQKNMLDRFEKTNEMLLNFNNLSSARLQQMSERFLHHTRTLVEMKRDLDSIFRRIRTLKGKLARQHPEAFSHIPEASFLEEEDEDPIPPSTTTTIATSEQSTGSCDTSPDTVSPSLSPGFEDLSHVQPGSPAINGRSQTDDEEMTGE
UniProt P17931, whole entry, looked up: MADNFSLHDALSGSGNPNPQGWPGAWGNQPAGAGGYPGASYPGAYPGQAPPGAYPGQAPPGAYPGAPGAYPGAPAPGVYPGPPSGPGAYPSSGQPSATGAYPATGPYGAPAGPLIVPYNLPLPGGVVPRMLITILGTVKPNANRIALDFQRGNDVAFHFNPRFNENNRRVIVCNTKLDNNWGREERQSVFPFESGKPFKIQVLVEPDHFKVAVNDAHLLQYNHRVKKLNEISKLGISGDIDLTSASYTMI
UniProt Q96JN0: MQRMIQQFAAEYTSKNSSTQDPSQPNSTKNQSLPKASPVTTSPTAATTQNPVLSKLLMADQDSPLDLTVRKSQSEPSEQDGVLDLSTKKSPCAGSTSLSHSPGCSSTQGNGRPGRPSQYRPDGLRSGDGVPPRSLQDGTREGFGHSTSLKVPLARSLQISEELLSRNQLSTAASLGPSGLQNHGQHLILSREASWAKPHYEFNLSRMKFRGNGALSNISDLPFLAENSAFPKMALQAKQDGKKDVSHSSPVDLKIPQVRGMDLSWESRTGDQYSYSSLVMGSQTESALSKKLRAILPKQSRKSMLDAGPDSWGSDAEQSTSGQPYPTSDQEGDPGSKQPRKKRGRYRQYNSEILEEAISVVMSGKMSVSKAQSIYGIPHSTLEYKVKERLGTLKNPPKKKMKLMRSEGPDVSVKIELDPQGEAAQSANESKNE
UniProt Q6ZUX7: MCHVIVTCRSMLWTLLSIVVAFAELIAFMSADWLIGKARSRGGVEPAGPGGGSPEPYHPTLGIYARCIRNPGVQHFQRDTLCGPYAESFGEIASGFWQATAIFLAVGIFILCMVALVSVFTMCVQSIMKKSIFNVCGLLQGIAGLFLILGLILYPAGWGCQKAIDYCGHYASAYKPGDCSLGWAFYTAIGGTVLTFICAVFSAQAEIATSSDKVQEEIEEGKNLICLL
UniProt Q9H9Z2: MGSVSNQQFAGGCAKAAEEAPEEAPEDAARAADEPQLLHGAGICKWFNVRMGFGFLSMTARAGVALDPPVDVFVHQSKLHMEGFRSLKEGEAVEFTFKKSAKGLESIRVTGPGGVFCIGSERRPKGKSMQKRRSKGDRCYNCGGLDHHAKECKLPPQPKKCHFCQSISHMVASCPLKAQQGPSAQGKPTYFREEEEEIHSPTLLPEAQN
UniProt O15243: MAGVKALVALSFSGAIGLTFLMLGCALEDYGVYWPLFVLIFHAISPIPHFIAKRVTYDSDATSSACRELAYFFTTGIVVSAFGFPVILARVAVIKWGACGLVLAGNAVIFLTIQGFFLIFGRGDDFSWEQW
UniProt Q9BT23: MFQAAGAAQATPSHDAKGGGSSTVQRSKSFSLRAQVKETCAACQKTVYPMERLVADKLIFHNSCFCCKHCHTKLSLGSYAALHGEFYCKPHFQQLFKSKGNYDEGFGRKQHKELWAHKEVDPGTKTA

Key:
Assay in all cases: log2 fold change, soluble protein after heating vs DMSO (PISA); higher = thermal stabilisation; K562 cells, 10 uM, 30 min; active = over 0.2 and 3.5 SD of the protein, either way, in both replicates (recomputed)
[1] = compound: COC1=CC=C(C=C1)CN2C=CC3=C2C=C(C=C3)C(=O)NO
How it was run: (§1)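 K562 cells at 2×10^6 cells/mL were treated for 30 min with 10 μM compound, and aliquots were heated for 3 min over 48°C-58°C before pooling. Extraction used PBS with 0.5% NP-40 at 4°C, and soluble protein was the supernatant after 21,000xg for 90 min, measured by TMTpro 16plex LC-MS/MS with channel sums equalised. Thermal stability values, relative to control samples and from duplicates, are log2 fold changes.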

filanesib = compound: CON(C)C(=O)N1N=C(c2cc(F)ccc2F)S[C@@]1(CCCN)c1ccccc1 [filanesib]
How it was run: as §1

zotarolimus = compound: CO[C@H]1C[C@@H]2CC[C@@H](C)[C@@](O)(O2)C(=O)C(=O)N2CCCC[C@H]2C(=O)O[C@H]([C@H](C)C[C@@H]2CC[C@H](n3cnnn3)[C@H](OC)C2)CC(=O)[C@H](C)/C=C(\C)[C@@H](O)[C@@H](OC)C(=O)[C@H](C)C[C@H](C)/C=C/C=C/C=C/1C [zotarolimus]
How it was run: as §1

[2] = compound: COc1cc2nc(-c3cc(F)ccc3O)nc(N[C@@H]3CNC[C@H]3C(C)(C)O)c2cc1OC
How it was run: as §1

lapatinib = compound: CS(=O)(=O)CCNCc1ccc(-c2ccc3ncnc(Nc4ccc(OCc5cccc(F)c5)c(Cl)c4)c3c2)o1 [lapatinib]
How it was run: as §1

idasanutlin = compound: COc1cc(C(=O)O)ccc1NC(=O)[C@@H]1N[C@@H](CC(C)(C)C)[C@](C#N)(c2ccc(Cl)cc2F)[C@H]1c1cccc(Cl)c1F [idasanutlin]
How it was run: as §1

alisertib = compound: COc1cc(Nc2ncc3c(n2)-c2ccc(Cl)cc2C(c2c(F)cccc2OC)=NC3)ccc1C(=O)O [alisertib]
How it was run: as §1

gefitinib = compound: COc1cc2ncnc(Nc3ccc(F)c(Cl)c3)c2cc1OCCCN1CCOCC1 [gefitinib]
How it was run: as §1

[3] = compound: COc1cccc2cc(-c3nc([C@H]4CC[C@H](C(=O)O)CC4)n4ncnc(N)c34)[nH]c12
How it was run: as §1

pictilisib = compound: CS(=O)(=O)N1CCN(Cc2cc3nc(-c4cccc5[nH]ncc45)nc(N4CCOCC4)c3s2)CC1 [pictilisib]
How it was run: as §1

Measured: log2 fold change

LLGL1 (UniProt Q15334)
inactive: [1] 0.03 | filanesib 0.049 | zotarolimus 0.072 | [2] -0.13 | lapatinib -0.022

LIG3 (UniProt P49916)
inactive: filanesib -0.032 | zotarolimus -0.075 | idasanutlin -0.176 | alisertib 0.041 | [2] -0.123 | gefitinib -0.004 | [3] -0.016 | lapatinib -0.19 | pictilisib 0.217

LRRC4B (UniProt Q9NT99)
inactive: [1] 0.053 | filanesib 0.011 | zotarolimus -0.026 | idasanutlin 0.007 | [2] -0.141 | gefitinib -0.238 | lapatinib -0.031 | pictilisib -0.053

LIPT2 (UniProt A6NK58)
inactive: filanesib 0.149

LENG8 (UniProt Q96PV6)
inactive: [1] 0.205 | filanesib 0 | zotarolimus -0.061 | idasanutlin -0.151 | alisertib -0.149 | gefitinib -0.056 | [3] -0.016 | pictilisib -0.002

LEPROTL1 isoform 2 (UniProt O95214)
inactive: [1] -0.109 | zotarolimus -0.064 | idasanutlin -0.127 | alisertib 0 | [2] -0.041 | gefitinib -0.092 | [3] -0.184 | lapatinib -0.153

LRRC14 (UniProt Q15048)
inactive: [1] 0.008 | idasanutlin -0.071 | alisertib -0.09 | [2] -0.079 | gefitinib 0.065 | [3] 0.141 | lapatinib 0.184

LPCAT4 (UniProt Q643R3)
inactive: [1] -0.064 | zotarolimus 0.028

Two entries drawn at random from the list so far, as already listed:
LIPT2 (UniProt A6NK58)
inactive: filanesib 0.149

LEPROTL1 isoform 2 (UniProt O95214)
inactive: [1] -0.109 | zotarolimus -0.064 | idasanutlin -0.127 | alisertib 0 | [2] -0.041 | gefitinib -0.092 | [3] -0.184 | lapatinib -0.153

(listing goes on)

LDHC (UniProt P07864)
inactive: filanesib 0.019 | gefitinib 0.062

LACRT (UniProt Q9GZZ8)
inactive: filanesib 0.535 | zotarolimus -0.156 | idasanutlin 0.152 | alisertib -0.041 | gefitinib 0.538 | [3] -0.128

LIN52 (UniProt Q52LA3)
active: alisertib -0.924
inactive: [3] 0

LIPT1 (UniProt Q9Y234)
inactive: idasanutlin -0.004 | alisertib -0.072 | [3] -0.312

LAMB2 (UniProt P55268)
inactive: alisertib 0.197 | [2] -0.14 | [3] 0.068 | lapatinib 0.164

LBH (UniProt Q53QV2)
inactive: idasanutlin 0.112 | alisertib 0.09 | [2] -0.352 | gefitinib -0.045 | [3] 0.169 | lapatinib -0.238

LATS1 (UniProt O95835)
inactive: pictilisib -0.072

LAMA2 (UniProt P24043)
inactive: zotarolimus -0.331 | alisertib -0.028 | gefitinib -0.056 | [3] -0.001

LDHD (UniProt Q86WU2)
inactive: zotarolimus 0.014

LAPTM4B (UniProt Q86VI4)
inactive: filanesib 0.186 | alisertib -0.027 | [3] 0.007 | pictilisib 0.017

LBHD1 (UniProt Q9BQE6)
inactive: zotarolimus 0

LIG4 (UniProt P49917)
inactive: filanesib -0.093 | gefitinib 0.224 | pictilisib 0.032

LGMN (UniProt Q99538)
inactive: [2] -0.192 | lapatinib 0.021 | pictilisib -0.03

LARP1B, A0A3B3ISF0
inactive: filanesib 0.282 | [2] -0.074 | lapatinib 0.035 | pictilisib -0.171

LOX (UniProt P28300)
inactive: alisertib -0.111 | gefitinib -0.391 | [3] 0.146

LRRC41 (UniProt Q15345)
inactive: filanesib 0.003 | [2] -0.069 | lapatinib 0.055

LRRC42 (UniProt Q9Y546)
inactive: zotarolimus -0.072 | idasanutlin -0.064 | pictilisib 0.056

LIMS1 isoform 5 (UniProt P48059)
inactive: zotarolimus -0.218

LAMA5 (UniProt O15230)
inactive: zotarolimus -0.136 | idasanutlin 0.047 | alisertib -0.03 | gefitinib 0.031 | [3] -0.067 | pictilisib -0.077

LAPTM5 (UniProt Q13571)
inactive: zotarolimus -0.185 | idasanutlin 0.142 | pictilisib 0.129

LOR (UniProt P23490)
inactive: alisertib 1.26 | [3] 0.015

KXD1 (UniProt Q9BQD3)
active: [3] 0.342
inactive: zotarolimus 0.073 | idasanutlin -0.021 | alisertib -0.019 | [2] 0.042 | lapatinib -0.054 | pictilisib 0.063

LGALS3 (UniProt P17931)
inactive: alisertib 1.44 | gefitinib 0.174 | [3] -0.035 | pictilisib 0.038

LRP1 (UniProt Q07954)
inactive: idasanutlin -0.173 | alisertib 0.287 | gefitinib 0.104 | [3] 0 | pictilisib 0.116

LCOR isoform 3 (UniProt Q96JN0)
inactive: idasanutlin -0.001

LHFPL2 (UniProt Q6ZUX7)
inactive: [2] 0.052 | lapatinib -0.071

LIN28A (UniProt Q9H9Z2)
inactive: filanesib -0.023 | zotarolimus -0.19 | pictilisib 0.162

LRP5 (UniProt O75197)
inactive: zotarolimus -0.224 | [2] -0.029 | gefitinib -0.021 | lapatinib 0.245 | pictilisib 0.023

LAMC1 (UniProt P11047)
inactive: pictilisib 0.24

LGALS3BP (UniProt Q08380)
inactive: idasanutlin -0.063 | gefitinib -0.001

LMLN isoform 3 (UniProt Q96KR4)
inactive: [2] -0.067 | lapatinib -0.002

LEPROT (UniProt O15243)
inactive: zotarolimus -0.056 | idasanutlin 0.31 | alisertib -0.027 | [3] 0.041 | pictilisib -0.212

LIMD2 (UniProt Q9BT23)
inactive: filanesib 0.003 | zotarolimus 0.074 | idasanutlin -0.022 | [2] 0.105 | lapatinib 0.087
